Assay results published in publication doi:10.1101/2021.11.24.469949.

T1: ZPR4-tdTomato-3xFLAG (Arabidopsis) (UniProt Q56WL5)
T1 sequence: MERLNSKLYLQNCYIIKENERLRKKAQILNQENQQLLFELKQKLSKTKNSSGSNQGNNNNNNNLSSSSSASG

T2: 3xFLAG tagged CNA (Arabidopsis) (UniProt Q9ZU11)
T2 sequence: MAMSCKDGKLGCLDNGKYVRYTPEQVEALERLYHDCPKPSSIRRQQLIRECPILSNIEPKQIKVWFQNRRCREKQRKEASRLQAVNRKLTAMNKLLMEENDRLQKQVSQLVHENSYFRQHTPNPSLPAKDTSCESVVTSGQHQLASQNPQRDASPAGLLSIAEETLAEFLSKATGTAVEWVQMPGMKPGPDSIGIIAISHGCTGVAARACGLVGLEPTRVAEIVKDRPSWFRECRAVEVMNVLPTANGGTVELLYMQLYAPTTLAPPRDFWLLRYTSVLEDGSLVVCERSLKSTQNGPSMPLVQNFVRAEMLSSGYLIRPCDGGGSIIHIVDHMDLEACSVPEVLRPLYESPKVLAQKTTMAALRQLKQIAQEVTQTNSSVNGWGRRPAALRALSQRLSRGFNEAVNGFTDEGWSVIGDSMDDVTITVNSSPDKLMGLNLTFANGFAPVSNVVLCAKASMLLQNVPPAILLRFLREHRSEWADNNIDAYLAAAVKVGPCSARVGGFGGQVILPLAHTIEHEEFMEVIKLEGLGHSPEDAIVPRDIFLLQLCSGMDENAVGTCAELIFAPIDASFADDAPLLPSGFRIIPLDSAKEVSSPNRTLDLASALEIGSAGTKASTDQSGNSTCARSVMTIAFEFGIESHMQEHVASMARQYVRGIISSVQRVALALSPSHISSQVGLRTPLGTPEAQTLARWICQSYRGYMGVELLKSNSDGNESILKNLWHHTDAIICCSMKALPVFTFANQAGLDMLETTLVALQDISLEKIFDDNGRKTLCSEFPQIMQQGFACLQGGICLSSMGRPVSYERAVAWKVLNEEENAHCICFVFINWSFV

B1: ATHB8 (protein, UniProt Q39123 1-833)
chain: MGGGSNNSHNMDNGKYVRYTPEQVEALERLYNDCPKPSSMRRQQLIRECPILSNIEPKQIKVWFQNRRCREKQRKEASRLQAVNRKLTAMNKLLMEENDRLQKQVSHLVYENSYFRQHPQNQGNLATTDTSCESVVTSGQHHLTPQHQPRDASPAGLLSIADETLTEFISKATGTAVEWVQMPGMKPGPDSIGIVAISHGCTGIAARACGLVGLDPTRVAEILKDKPCWLRDCRSLDIVNVLSTANGGTLELIYMQLYAPTTLAPARDFWMLRYTSVMEDGSLVICERSLNNTQNGPSMPPSPHFVRAEILPSGYLIRPCEGGGSILHIVDHFDLEPWSVPEVLRSLYESSTLLAQRTTMAALRYLRQISQEISQPNVTGWGRRPAALRALSQRLSKGFNEAVNGFSDEGWSILESDGIDDVTLLVNSSPTKMMMTSSLPFANGYTSMPSAVLCAKASMLLQNVPPSILLRFLREHRQEWADNSIDAYSAAAIKAGPCSLPIPRPGSFGGQVILPLAHTIENEEFMEVIKLESLGHYQEDMMMPADIFLLQMCSGVDENAVESCAELIFAPIDASFSDDAPIIPSGFRIIPLDSKSEGLSPNRTLDLASALDVGSRTAGDSCGSRGNSKSVMTIAFQLAFEMHMQENVASMARQYVRSVIASVQRVALALSPSSHQLSGLRPPPASPEAHTLARWISHSYRCYLGVDLLKPHGTDLLKSLWHHPDAVMCCSLKALSPVFTFANQAGLDMLETTLVALQDITLDKIFDNNNGKKTLSSEFPQIMQQGFMCMDGGICMSSMGRAVTYEKAVGWKVLNDDEDPHCICFMFLNWSFI
B2: PHAVOLUTA/ATHB9 (PHV) (protein, UniProt O04292 1-841)
chain: MMAHHSMDDRDSPDKGFDSGKYVRYTPEQVEALERVYAECPKPSSLRRQQLIRECPILCNIEPRQIKVWFQNRRCREKQRKESARLQTVNRKLSAMNKLLMEENDRLQKQVSNLVYENGFMKHRIHTASGTTTDNSCESVVVSGQQRQQQNPTHQHPQRDVNNPANLLSIAEETLAEFLCKATGTAVDWVQMIGMKPGPDSIGIVAVSRNCSGIAARACGLVSLEPMKVAEILKDRPSWFRDCRCVETLNVIPTGNGGTIELVNTQIYAPTTLAAARDFWTLRYSTSLEDGSYVVCERSLTSATGGPNGPLSSSFVRAKMLSSGFLIRPCDGGGSIIHIVDHVDLDVSSVPEVLRPLYESSKILAQKMTVAALRHVRQIAQETSGEVQYSGGRQPAVLRTFSQRLCRGFNDAVNGFVDDGWSPMSSDGGEDITIMINSSSAKFAGSQYGSSFLPSFGSGVLCAKASMLLQNVPPLVLIRFLREHRAEWADYGVDAYSAASLRATPYAVPCVRTGGFPSNQVILPLAQTLEHEEFLEVVRLGGHAYSPEDMGLSRDMYLLQLCSGVDENVVGGCAQLVFAPIDESFADDAPLLPSGFRVIPLDQKTNPNDHQSASRTRDLASSLDGSTKTDSETNSRLVLTIAFQFTFDNHSRDNVATMARQYVRNVVGSIQRVALAITPRPGSMQLPTSPEALTLVRWITRSYSIHTGADLFGADSQSCGGDTLLKQLWDHSDAILCCSLKTNASPVFTFANQAGLDMLETTLVALQDIMLDKTLDDSGRRALCSEFAKIMQQGYANLPAGICVSSMGRPVSYEQATVWKVVDDNESNHCLAFTLVSWSFV

Tests used:
[1] = target: T1, ZPR4-tdTomato-3xFLAG (Arabidopsis); assay: affinity purification with mass spectrometry
[2] = target: T2, 3xFLAG tagged CNA (Arabidopsis); assay: affinity purification with mass spectrometry

| Binder | binding [1] | binding [2] |
| --- | --- | --- |
| B1 | binds | binds |
| B2 | binds | binds |

These are yes or no findings as the source states them, for the method shown. Binding seen in cells or lysates may run through a third protein. A yes stands for co-enrichment or nearness to the bait. Other partners may have been found. Where a sequence is shown, tags or fusion partners need not be part of it.
